This data set in a line: Taste of antibiotics in water or premix (Example F).
The mark [1] stands for this setting: 500 mg in 100 ml premix (zero sugar, 6% lecithin).

Structures are written as SMILES.

Take `CC[C@H]1OC(=O)[C@H](C)[C@@H](O[C@H]2C[C@@](C)(OC)[C@@H](O)[C@H](C)O2)[C@H](C)[C@@H](O[C@@H]2O[C@H](C)C[C@H](N(C)C)[C@H]2O)[C@](C)(O)C[C@@H](C)CN(C)[C@H](C)[C@@H](O)[C@]1(C)O` [Azithromycin, Azithromycin dihydrate]: the taste entry was “highly palatable” under setting [1] and “mildly aversive due to strong bitterness” (500 mg in 100 ml water).
Take `O=C(O)c1cn(C2CC2)c2cc(N3CCNCC3)c(F)cc2c1=O` [Ciprofloxacin, Ciprofloxacin base]: the taste entry by setting is: under setting [1], “mildly bitter and mildly aversive”; (500 mg in 100 ml premix with Chocolate flavor MET 1947 at 0.8%) “Acceptable”; (500 mg in 100 ml water) “extremely bitter and highly aversive”.

Values taken from patent publication US20230364172A1, “MODULATION OF SOLUBILITY, PALATABILITY, ABSORPTION, AND BIOAVAILABILITY OF MITRAGYNA SPECIOSA-DERIVED COMPOUNDS FOR ORAL AND BUCCAL DELIVERY” (Syncotrance, LLC, priority 2022, published 2023).
